Percent effect of library compounds

Protein sequences, listed by entry. Tags and fused reporters are not part of them.
UniProt P9WFT3, whole entry: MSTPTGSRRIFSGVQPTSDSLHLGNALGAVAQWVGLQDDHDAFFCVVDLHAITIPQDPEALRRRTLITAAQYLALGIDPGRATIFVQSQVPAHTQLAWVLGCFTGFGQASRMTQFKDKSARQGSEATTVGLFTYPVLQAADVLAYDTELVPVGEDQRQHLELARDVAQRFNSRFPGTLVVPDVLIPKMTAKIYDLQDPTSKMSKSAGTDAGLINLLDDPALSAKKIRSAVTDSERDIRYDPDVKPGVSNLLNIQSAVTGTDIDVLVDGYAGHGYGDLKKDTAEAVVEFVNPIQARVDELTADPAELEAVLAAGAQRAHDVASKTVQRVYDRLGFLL

From ChEMBL document CHEMBL3988442, “University of Dundee, Small-Polar-MMV Screening Library” (2021).

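Enzyme assay of tryptophanyl-tRNA synthetase; the read-out is not stated. Target: Tryptophan-tRNA ligase, Mycobacterium tuberculosis (UniProt P9WFT3). Concentration: 10 µM. Higher most likely means stronger inhibition; the record gives no direction and few retests gave an IC50. Of about 65,000 compounds tested this way, about 64 (0.098%) reached 50% or more in at least one test.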

Results are given as percent effect. The record does not define 0% and 100%; most values in the screen are far below 50% and negative numbers occur (in some assays of this library far below -100). The compounds are a random part of those screened.

| compound | Percent Effect |
|---|---|
| `CN(C)c1ccc(NC(=O)NCc2ccc(Cl)s2)cn1` | 1.815 |
| `O=C(c1cnc(O)cc1O)N1CCCC(CCc2ccccc2F)C1` (centres unmarked) | -3.759 |
| `Cc1cc2ncn(C(=O)N3CCCC3)c2cc1C` | -5.499 |
| `Cc1nc(C(=O)N2CCOC(c3nc(C(C)C)n[nH]3)C2)c[nH]1` (centres unmarked) | -3.83 |
| `O=C(c1cccc(O)c1)N1C[C@@H](CN2CCCCC2)[C@@H](CO)C1` | -5.255 |
| `Cc1c(C(=O)N2CCC(O)(CN(C)C)C2)c2cc(O)ccc2n1C` (centres unmarked) | 2.294 |
| `CCCN(Cc1cccc(OCCO)c1)Cc1ccccc1OC` | -3.284 |
| `CC(=O)N1CCN(Cc2csc(-c3cnn(C)c3)n2)CC1` | -0.1572 |
| `CCN(Cc1nc2c(cnn2C)c(=O)[nH]1)c1cccc(Cl)c1` | -0.7037 |
| `O=C(CSc1nc2c(cnn2CCO)c(=O)[nH]1)N1CCCCCC1` | -3.92 |
| `CC1CN(CC(=O)NC2CCOCC2)CCN1Cc1nccn1C` (centres unmarked) | 7.45 |
| `COCCCNC(=O)NCc1ccc(N2CCOC(C)C2)nc1` (centres unmarked) | -0.1875 |
| `CC(C)(C)OC(=O)N1CSC[C@@H]1C(=O)NCc1ccc(C#N)cc1` | -3.366 |
| `CCN1CC(COC(=O)c2ccc(N(C)C)cc2F)CC1=O` (centres unmarked) | -2.993 |
| `Cc1nn(C)cc1-c1cc(C(=O)NCC(C)(C)c2ccccc2F)n[nH]1` | 10.29 |
| `CC(C)c1ccc(CNC(C)c2ccc(S(C)(=O)=O)cc2)cc1` (centres unmarked) | -6.208 |
| `CC(C)c1nc(CN2CCN(C(=O)OC(C)(C)C)C(C)C2)no1` (centres unmarked) | -4.397 |
| `CCOc1ncccc1CNS(=O)(=O)c1ccc2c(c1)CCCC(=O)N2` | 0.1032 |
| `Cc1cc(C(=O)N2CCCN(Cc3nccn3C(C)C)CC2)no1` | -9.225 |
| `COCc1ccccc1C(=O)NS(=O)(=O)CCCC#N` | -0.2742 |
| `COc1ccc2c(c1)CCCC2CC(=O)NCC(=O)O` (centres unmarked) | -3.207 |
| `Cc1nn(C)c(C)c1CNC1CCOc2ccccc21` (centres unmarked) | -5.7 |
| `COc1c(CNCc2ccccc2Cn2ccnc2)c(C)nn1C` | -4.309 |
| `CCN(CC)CCNc1nc(C(C)C)nc2c(C)nn(CC)c12` | -0.9067 |
| `CN(C)c1ncc(C2Nc3cc(Cl)ccc3C3=NCCCN32)cn1` (centres unmarked) | -8.314 |
| `CC(C)c1noc(-c2ccc(NC(=O)NCC(O)C(C)C)cc2)n1` (centres unmarked) | 1.569 |
| `O=C(Cc1ccsc1)NCC1Cn2nnc(-c3ccoc3)c2CO1` (centres unmarked) | -2.481 |
| `Cc1nnc2n1CCN(Cc1ccc3c(c1)OCCO3)C2` | 2.419 |
| `CCCN1C(=O)CC(N2CCN(c3ccc(F)cc3)CC2)C1=O` (centres unmarked) | -3.072 |
| `c1ccc2nc(NCC3(N4CCOCC4)CCSC3)cnc2c1` (centres unmarked) | 20.17 |
| `COc1ccc(CC2(C(=O)O)CCN(c3nc(C)ncc3C)CC2)cc1` | -1.632 |
| `Cc1ccc2cccc(C(=O)N3CCN(c4cccnn4)CC3)c2n1` | -0.2441 |
| `CN(C)CCSc1ccc(NC(=O)c2nccn3ccnc23)cc1` | -19.77 |
| `O=C(Cc1ccccc1Cl)NCC1CCN(Cc2ccsc2)CC1` | 2.348 |
| `COCc1noc(C2(c3cccc(Cl)c3)CCOCC2)n1` | 11.9 |
| `CCN1CCN(C(=O)c2cccc(CN3CCOCC3)c2)CC1` | -0.000007 |
| `Cc1cc(CN2C[C@@H]3COC[C@H](C(=O)N4CCCCO4)[C@@H]3C2)oc1C` | -1.095 |
| `CCOCC1CN(C(=O)c2ccncc2)Cc2nn(C)cc21` (centres unmarked) | 1.154 |
| `Cc1ccc(CN(CCCn2ccnc2)Cc2cnc(N(C)C)nc2)s1` | 3.652 |
| `O=C(CNC(=O)C1(c2ccc(F)cc2F)CCC1)Nc1ccccn1` | 4.773 |
| `Cc1ccc(F)c(S(=O)(=O)N2CCCC2c2ccncc2)c1` (centres unmarked) | 5.677 |
| `CCOc1ccc(N2CCCN=C2NC(=O)c2ccc(Cl)cc2)cc1` | -3.497 |
| `CC(Cn1ccnc1)NC(=O)NCCc1ccccn1` (centres unmarked) | 0.7862 |
| `O=C(c1ccnnc1)N1CCC2(CC1)CN(c1ccccn1)CCO2` | -0.07639 |
| `CN(Cc1cc2n(n1)CCCNC2)Cc1ccno1` | 7.77 |
| `Cc1nccn1Cc1nnc(C2CCN(c3ccncc3F)CC2)n1C` | 0.4944 |
| `CC(C)CCN(C)Cn1ncc2cn(-c3ccccc3)nc2c1=O` | -1.06 |
| `CC(C)N1[C@H](CN2CCCC2)C[C@@H]2CN(C(=O)c3ccoc3)CC[C@@H]21` | 0.0969 |
| `Cc1cc(C2CCCN(C(=O)COc3cccc(F)c3)C2)n[nH]1` (centres unmarked) | 0.7498 |
| `CN(C)c1ncccc1CNC(=O)c1csc(Br)c1` | -4.955 |
| `Fc1ccc(-c2nc(CN3CCn4c(nnc4C4CC4)C3)co2)cc1` | -1.371 |
| `Cc1ccn(-c2ccc(NCc3ccnc(N4CCCCC4)c3)nn2)n1` | -1.857 |
| `CC(O)CN1CCN(C(=O)c2ccc(N(C)C)nn2)CC1` (centres unmarked) | 3.277 |
| `O=S(=O)(C1CC1)N1CCc2onc(COc3ccccn3)c2C1` | 7.659 |

6 of the entries, repeated:

{"compound": "COc1c(CNCc2ccccc2Cn2ccnc2)c(C)nn1C", "Percent Effect": -4.309}
{"compound": "Cc1nnc2n1CCN(Cc1ccc3c(c1)OCCO3)C2", "Percent Effect": 2.419}
{"compound": "Cc1cc(C(=O)N2CCCN(Cc3nccn3C(C)C)CC2)no1", "Percent Effect": -9.225}
{"compound": "CC(C)c1ccc(CNC(C)c2ccc(S(C)(=O)=O)cc2)cc1", "stereo": "centres unmarked", "Percent Effect": -6.208}
{"compound": "Fc1ccc(-c2nc(CN3CCn4c(nnc4C4CC4)C3)co2)cc1", "Percent Effect": -1.371}
{"compound": "CCOc1ncccc1CNS(=O)(=O)c1ccc2c(c1)CCCC(=O)N2", "Percent Effect": 0.1032}